Laboratory results reported in PubChem BioAssay AID1347423 (Functional Genomics Laboratory (NCATS/FGL), 2020).
Among all 52,000 sequences or so, about 210 (0.4%) were called active.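 Rule for the calls: active = gene whose silencing raises cell survival under the drug, median off-target-corrected z-score across its silencing RNAs 2 or more; inactive = the rest.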 The list shows a part of the results.

Experiment: Resistance to Poly (ADP-Ribose) Polymerase inhibitor: Gene Identification via Genome-wide siRNA Screen
Details: mouse BRCA2 R2336H ES cells, olaparib, CellTiter-Glo viability; hits give high values
Outline: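 Mouse BRCA2 R2336H ES cells were reverse-transfected with siRNA (20 nM final), treated at 48 h with 500 nM olaparib, and read by CellTiter-Glo after 72 h. Scores: MAD-based z per siRNA, median per gene, seed off-target correction.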

Row | Sequence | z-score
1 | GGAUGAAGGGACGAAUUCATT against Pcdha6 | inactive: 0.447
2 | GCCACGUCUAAGUAUCAUUTT against Col6a1 | inactive: -0.765
3 | GGAAGCUUCACAUCAGCCATT against Hoxb5 | inactive: -0.111
4 | GGGAAAUGGAGGAUAAUUATT against B930008K04Rik | inactive: -1.72
5 | GGUGGUUAAAUGGUUUUAATT against Prkg2 | inactive: 0.362
6 | CCCUCUUAGGAGCUAGUGATT against Atp2b4 | inactive: -1.83
7 | GGAAAAGGUGGAGUUCUUATT against 9830160G03Rik | inactive: -0.547
8 | CCUGACAUUCUUUAAUCCATT against D930020E02Rik | inactive: 0.125
9 | GGAUGUCGUGUGUUACUUGTT against Dgkg | inactive: 0.834
10 | CCAUGGGCCUACCAAACAGTT against B230218O03 | inactive: 1.02
11 | GGGCCACAAGAAAUGAUAUTT against Nqo2 | inactive: -1.09
12 | GGAAUAAAGAUCUUUGGUUTT against Vip | inactive: 0.51
13 | GGUGACAACUGACUUCGAATT against C87499 | inactive: 0.27
14 | GGACCAAAUUACAUAGCAATT against Itgb3bp | inactive: 1.32
15 | CCCUAAAGUCCAGAAAAUATT against Olfr1211 | inactive: -1.1
16 | CGUCACUGAGAGAUUCAAATT against 4831417L10 | inactive: 3.13
17 | GGACCUAAAGUUUCUCUCATT against Ccnc | inactive: 0.608
18 | GCAGAGACGUGAUUGAUCGTT against Hist2h2bb | inactive: -1.49
19 | GGCUGGAUUUUAUUUUGUUTT against D830039M14Rik | inactive: 0.139
20 | GGAGUAUCUUGAAAUGCAUTT against A530088I07Rik | inactive: 0.83
21 | GGACUACGAUGAAGAGUUGTT against Rnf134 | inactive: 0.1
22 | GGAUGCAGAGAAGAAUCUGTT against 2400006A19Rik | inactive: -2.42
23 | GGAGAAGGCAAAGACUCUGTT against Serpina3n | inactive: -1.39
24 | GGUAUGAUGGACUCUCUGUTT against Olfr186 | inactive: -2.58
25 | CCACCCUGUGAAAAAGUCATT against Ccr3 | inactive: 1.15
26 | CCGAGUACCAAGAUUCUGATT against 1600015I10Rik | inactive: 1.18

Given as tab-separated lines: part of the list above
Row	Sequence	z-score
4	GGGAAAUGGAGGAUAAUUATT against B930008K04Rik	inactive: -1.72
5	GGUGGUUAAAUGGUUUUAATT against Prkg2	inactive: 0.362

(next part)

Row | Sequence | z-score
27 | CCAACCGAGUCAUUUAAGGTT against Runx2 | inactive: 1.29
28 | GGUGUUGAGAUCCACAAGGTT against 2210012G02Rik | inactive: 1.88
29 | GGGAUCAAUGCUUAAUACATT against Zfp2 | inactive: 0.556
30 | GGUAAAUAGUCACCUACGGTT against Dia1 | inactive: 0.858
31 | GGAAGAACUCAAGAGGGAATT against Ppap2c | inactive: 0.415
32 | GCCAUUGCCUCAUAAUUUATT against Magmas | inactive: -2.29
33 | GCUUUUGUGACUCUGCUGATT against 1300006N24Rik | inactive: -0.846
34 | AAUUCAUCCUCAGCGUACATT against D830030K20Rik | inactive: 0.478
35 | CGAUAUCACUCAGGAGUGUTT against 0710007A14Rik | inactive: 0.132
36 | GGGCUUCAAGCAUAGCUUCTT against Fiz1 | inactive: -0.24
37 | GAUUCAGCAUUAUUUCUGUTT against Olfr980 | inactive: 0.218
38 | AGUGAACAUCGAUCGCAUGTT against Gng8 | inactive: 0.283
39 | GGAGUUGGUCAAGGUGCUUTT against Parvb | inactive: 2.21
40 | CGUAUAUCGAUGAAGAUGATT against BC016579 | inactive: -0.542
41 | GGAGCAUCUCCUCAUGGAUTT against 4921517D21Rik | inactive: 0.514
42 | CGGUAUGUUAUUUUGGUUGTT against 1500011H22Rik | inactive: 0.654
43 | GGGUUAAGGUAGUUUCUAATT against 4930579C12Rik | inactive: 1.09
44 | GGCCCGAAUAGCUAUGACUTT against Cldn7 | inactive: -0.0361
45 | GCUUCUACGUAUGUGCCCATT against Tpx2 | inactive: -1.26
46 | GGAUUCAAGGCUGUGGGAATT against Timp1 | inactive: -1.08
47 | GGAGAUUGCCAUAGCUGCUTT against Mybl2 | inactive: -0.0756
48 | GGACACCACCAAUCUUGACTT against 6330406P08Rik | inactive: 1.1
49 | GGGCUUCUUCAGACGAACATT against Nr1i3 | inactive: -2.42
50 | CCACCCUCUCAUUACAGACTT against 9330174J19Rik | inactive: -1.23
51 | GGAUCACAGCGAUUAUUGATT against D630028G08Rik | inactive: -0.512
52 | GGUCUUAGUAAUAUCAUCGTT against Cacng2 | inactive: -0.19

Row | Sequence | z-score
53 | CGACUGCCCAUAAGAAAACTT against 1700007H16Rik | inactive: -0.642
54 | GCCAUCGCUAACUUACGGATT against BC024955 | inactive: 0.805
55 | GGUCUUUCAGAAAGUAGAUTT against Btbd4 | inactive: 0.425
56 | GCAAAAGGGCUGUUUGUAGTT against Olfr1279 | inactive: 0.821
57 | CCACAAGGUCUUUGGAUGATT against Pcdha8 | inactive: 0.67
58 | GGUCAAUGCUUACUAUUCATT against Kel | inactive: -0.857
59 | GGUACCAUACGACAUUAAUTT against C330005L02Rik | inactive: 1.08
60 | CGUGGUUAGACCAAAUAUUTT against Mrps6 | inactive: 0.125
61 | GCUGUGCUACCCUCAUUCUTT against Nxf | inactive: 1.36
62 | GGUAAAAGUAGAAGCUAUUTT against Zbtb3 | inactive: -1.31
63 | GGAAAGUCAUUUCCCUGUUTT against Sprr2h | inactive: -0.406
64 | CCAUGUCAAUAUAGCUGUCTT against Igfbpl1 | inactive: 0.645
65 | GGAGUGUGACAUUGGUGAUTT against Dusp22 | inactive: -0.983
66 | CGCAACCAGUUUGUUCCUGTT against Ugt1a9 | inactive: -0.143
67 | CGAUCGGCGACCUUUUAGATT against Irak3 | inactive: -1.08
68 | GGACAGAAUCACGGUUUCCTT against 5830443L24Rik | inactive: -0.493
69 | GCAUGUAAGUACUAGAUUATT against 3000002G13Rik | inactive: 0.776
70 | GGUGGAAGCAAGAGAAAAUTT against Tnp1 | inactive: -0.637
71 | GGGAUUUCAUCGUGCAACGTT against Ndufa2 | inactive: 1.02
72 | GCUGGAUACUAAAUAUCCUTT against Dctd | inactive: -0.832
73 | GGCCUUUGUACAUGUUAGGTT against Lman1l | inactive: 0.663
74 | GGCACUAAUGUAAAAACCATT against Bbs7 | inactive: 0.579
75 | GGAGAAGCAUAAAUUUGAGTT against D230007K08Rik | inactive: -0.325
76 | GGCUUUCCUUACCAUAUAUTT against Trim7 | inactive: -0.629
77 | GGUGACCUACAAUCUCAAATT against Adam2 | inactive: 0.221
78 | GCUAUUAGAGAGGACUAAGTT against A430105I19Rik | inactive: 0.842

In a second layout: entries from further up.
Row	Sequence	z-score
11	GGGCCACAAGAAAUGAUAUTT against Nqo2	inactive: -1.09
14	GGACCAAAUUACAUAGCAATT against Itgb3bp	inactive: 1.32
15	CCCUAAAGUCCAGAAAAUATT against Olfr1211	inactive: -1.1
19	GGCUGGAUUUUAUUUUGUUTT against D830039M14Rik	inactive: 0.139
22	GGAUGCAGAGAAGAAUCUGTT against 2400006A19Rik	inactive: -2.42
25	CCACCCUGUGAAAAAGUCATT against Ccr3	inactive: 1.15
28	GGUGUUGAGAUCCACAAGGTT against 2210012G02Rik	inactive: 1.88
32	GCCAUUGCCUCAUAAUUUATT against Magmas	inactive: -2.29
40	CGUAUAUCGAUGAAGAUGATT against BC016579	inactive: -0.542
41	GGAGCAUCUCCUCAUGGAUTT against 4921517D21Rik	inactive: 0.514
46	GGAUUCAAGGCUGUGGGAATT against Timp1	inactive: -1.08
47	GGAGAUUGCCAUAGCUGCUTT against Mybl2	inactive: -0.0756
49	GGGCUUCUUCAGACGAACATT against Nr1i3	inactive: -2.42
63	GGAAAGUCAUUUCCCUGUUTT against Sprr2h	inactive: -0.406
64	CCAUGUCAAUAUAGCUGUCTT against Igfbpl1	inactive: 0.645
65	GGAGUGUGACAUUGGUGAUTT against Dusp22	inactive: -0.983
66	CGCAACCAGUUUGUUCCUGTT against Ugt1a9	inactive: -0.143
68	GGACAGAAUCACGGUUUCCTT against 5830443L24Rik	inactive: -0.493
71	GGGAUUUCAUCGUGCAACGTT against Ndufa2	inactive: 1.02
73	GGCCUUUGUACAUGUUAGGTT against Lman1l	inactive: 0.663
74	GGCACUAAUGUAAAAACCATT against Bbs7	inactive: 0.579
76	GGCUUUCCUUACCAUAUAUTT against Trim7	inactive: -0.629
78	GCUAUUAGAGAGGACUAAGTT against A430105I19Rik	inactive: 0.842

Additional results.

Row | Sequence | z-score
79 | GGCAAAGUUUGGGAUUACATT against Ntng1 | inactive: 0.342
80 | GGGAGGAGAAAAAUAUUCUTT against Olfr1094 | inactive: 0.314
81 | GGAGAUUGAGAAGUUUCUATT against A930018B01Rik | inactive: -0.325
82 | GCUGAUGUUUGUUAUGUACTT against Rgmb | inactive: -0.74
83 | GGGCAAUGAAUGACAUUGGTT against Gabrd | inactive: -1.89
84 | GGUACCCACACAAUUUUUATT against Alg5 | inactive: 0.232
85 | GGUGAAAUGUCUUAUAACATT against 5430404L10Rik | inactive: 0.695
86 | CGGUAGAGUCAGCAUUUGATT against Sez6 | inactive: -0.0576
87 | GCUACAGCCACACCAAAGUTT against Nkx2-9 | inactive: -1.15
88 | GAAGCUAGAAGAGAUUAAATT against Tsga14 | inactive: -0.0798
89 | GCUAUUCCGGAAUAAGAGUTT against B230343H07Rik | inactive: -0.349
90 | GGAGAAACUCUUCAGGCUUTT against 3930402F23Rik | inactive: -1.41
91 | CGGCCUACAUCUUAGUGGUTT against Cd151 | inactive: -1.59
92 | GGUUACAGAGAGACAUCAUTT against Cdk5rap2 | inactive: 1.23
93 | GGAAAGAAGGUGAACAACATT against Phax | inactive: 0.545
94 | GCUGCUAUGAGAGAGUUUUTT against Serpind1 | inactive: -0.0941
95 | CCAGAUCCUAUCUUUCGAGTT against 2610318N02Rik | inactive: 0.535
96 | GGCACCAUGUACCAAAUCCTT against Fetub | inactive: 1.32
97 | GUAAUCUGGCGAUUGUCUGTT against Hist1h2ab | inactive: 0.0939
98 | GCCUUCAGUCCUAGAAACCTT against Lrrk1 | inactive: -1.29
99 | GGAGGUGGAUGUUAAAGUUTT against Ubxd4 | inactive: 0.251
100 | CCUGGACAUAACCAAUGUATT against Glrp1 | inactive: -0.0778
101 | GGUACAGGUUGACCAAACUTT against Atp6v1e2 | inactive: -0.139
102 | GGACAACGAGUGUCUGGGUTT against Cx3cr1 | inactive: 1.98
103 | CCAGAUUAUGACAAAGCGUTT against Glyat | inactive: -0.0709
